The numbers were not newly measured in patent US20070276024A1, “Methods for Treating Diseases and Conditions with Inverse Agonists and for Screening for Agents Acting as Inverse Agonists” (Inverseon , Inc., priority 2003, published 2007), which cites them from elsewhere.

SMILES strings stand for the structures.

For this data set the following is noted: after oral intake; cited from earlier work.

As to `CC(C)[N+]1(C)[C@@H]2CC[C@H]1C[C@@H](OC(=O)C(CO)c1ccccc1)C2` (stereo partly shown) [Ipratropium bromide], the “time of peak plasma concentrations” value is 3 h.
